PubChem BioAssay AID1508597, Cure First | 2020
Shown is an unselected part of the about 2,100 reagents, under one of the conditions tested. 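Calls flag viability under 80% in either arm, not effects specific to rucaparib; the reference for percent is not stated.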 Some reagents were tested in more than one well and are listed for each. Not given: the 100% reference.

Assay: 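Knock-downs altering ovarian cancer cell survival with or without PARP inhibitor rucaparib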 (primary screen)
Cell system: human ovarian carcinoma lines grown from tumours: OCI-P5x (papillary serous) and OCI-C5x (clear cell)
Knock-down reagent: siRNA pool against human genes, 1.25 pmol siRNA per well
Timing: 72 h or 96 h, depending on the cell culture
Conditions: rucaparib 20 µM (about IC30) or vehicle, present until read-out
Rucaparib or vehicle: Vehicle
Cell line: OCI-C5x (clear cell)
Detection: 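ATP luminescence measured at 72 or 96 h according to the culture, then normalised and expressed as percent viability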
Reading the numbers: viability, normalised: higher = more viable cells remaining
Call rule: 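Active when normalised viability falls below 80 percent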
Calls: active = viability under 80%; inactive = viability 80% or more

With KCTD13 (potassium channel tetramerization domain containing 13), technical replicate 1 the deposit lists viability, normalised (%) = 48; active.
For KCTD13 (potassium channel tetramerization domain containing 13), technical replicate 2, the values are viability, normalised (%) = 46.5; active.
KCTD13 (potassium channel tetramerization domain containing 13), technical replicate 3 showed viability, normalised (%) = 49.3; active.
With DPY30 (dpy-30 histone methyltransferase complex regulatory subunit), technical replicate 1 the deposit lists viability, normalised (%) = 61.6; active.
DPY30 (dpy-30 histone methyltransferase complex regulatory subunit), technical replicate 2 scored viability, normalised (%) = 57; active.
DPY30 (dpy-30 histone methyltransferase complex regulatory subunit), technical replicate 3 showed viability, normalised (%) = 55.7; active.
With CDH4 (cadherin 4), technical replicate 1, the entry reads viability, normalised (%) = 81.2; inactive.
CDH4 (cadherin 4), technical replicate 2 showed viability, normalised (%) = 78.8; active.
CDH4 (cadherin 4), technical replicate 3 scored viability, normalised (%) = 79.6; active.
For KDM5C (lysine demethylase 5C), technical replicate 1 the deposit lists viability, normalised (%) = 34.3; active.
KDM5C (lysine demethylase 5C), technical replicate 2 gave viability, normalised (%) = 23.2; active.
With KDM5C (lysine demethylase 5C), technical replicate 3, the values are viability, normalised (%) = 43.2; active.
CRADD (CARD and death domain containing adaptor protein), technical replicate 1 gave viability, normalised (%) = 85; inactive.
CRADD (CARD and death domain containing adaptor protein), technical replicate 2 showed viability, normalised (%) = 73.7; active.
CRADD (CARD and death domain containing adaptor protein), technical replicate 3 gave viability, normalised (%) = 82.4; inactive.
TTN (titin), technical replicate 1 showed viability, normalised (%) = 59.7; active.
For TTN (titin), technical replicate 2 the deposit lists viability, normalised (%) = 53.3; active.
TTN (titin), technical replicate 3 showed viability, normalised (%) = 71.1; active.
DDX21 (DExD-box helicase 21), technical replicate 1 gave viability, normalised (%) = 50.8; active.
With DDX21 (DExD-box helicase 21), technical replicate 1, the values are viability, normalised (%) = 38.5; active.
For DDX21 (DExD-box helicase 21), technical replicate 2 the deposit lists viability, normalised (%) = 46.6; active.
DDX21 (DExD-box helicase 21), technical replicate 2 gave viability, normalised (%) = 43.9; active.
With DDX21 (DExD-box helicase 21), technical replicate 3, the entry reads viability, normalised (%) = 57.2; active.
For DDX21 (DExD-box helicase 21), technical replicate 3, the entry reads viability, normalised (%) = 46.6; active.

Entries listed so far whose gene name begins with K or k:
KCTD13 (potassium channel tetramerization domain containing 13), technical replicate 1 → viability, normalised (%) = 48; outcome = active
KCTD13 (potassium channel tetramerization domain containing 13), technical replicate 2 → viability, normalised (%) = 46.5; outcome = active
KCTD13 (potassium channel tetramerization domain containing 13), technical replicate 3 → viability, normalised (%) = 49.3; outcome = active
KDM5C (lysine demethylase 5C), technical replicate 1 → viability, normalised (%) = 34.3; outcome = active
KDM5C (lysine demethylase 5C), technical replicate 2 → viability, normalised (%) = 23.2; outcome = active
KDM5C (lysine demethylase 5C), technical replicate 3 → viability, normalised (%) = 43.2; outcome = active
